Results from PubChem BioAssay AID2685 (National Center for Advancing Translational Sciences (NCATS), 2010).
Some of the results follow. The main result of the screen is listed elsewhere. These columns were measured beside it and carry no call. Compounds called inactive in the main read-out are mostly missing here. Potencies come from curve fits of mixed quality, noted in brackets.

Test: qHTS Assay for Lipid Storage Modulators in Drosophila S3 Cells;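 for cell number change: cells counted by Cell Tracker Red CMTPX staining in the red channel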
Conditions: BODIPY lipid droplet fluorescence, 18-24 h; for cell number change: measured here: cell count max response, cells fed with added oleic acid
Outline: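 Drosophila S3 cells got compounds at several concentrations plus oleic acid (400 uM solution). Laser-scanning cytometry with 488 nm excitation read lipid droplets at 500-530 nm and cells at 575-640 nm. Percent activity was relative to 20 uM Triacsin C.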

[1] = measured here: lipid fluorescence (Fed channel) AC50, cells fed with added oleic acid
[2] = measured here: cell number channel AC50, cells fed with added oleic acid

| SMILES | cell number change | AC50 [1] | AC50 [2] |
| --- | --- | --- | --- |
| O=C1c2ccccc2C(=O)N1Cc1nc2ccccc2c(=O)n1Cc1ccco1 | -16.1% | 0.164 µM [falling, full curve, poor fit] |  |
| COc1cccc(-c2nn(-c3ccccc3)cc2C(=O)n2nnc3ccccc32)c1 | 7.7% | 6.51 µM [rising, single point] |  |
| Cc1ccc(N2CC(O)Cn3c2nc2c3c(=O)n(C)c(=O)n2C)cc1 (stereo not drawn) | 7.21% |  |  |
| CCOc1ccc2[nH]c(=O)c(CN(CCO)C(=O)CC)cc2c1 | -6.43% | 0.00411 µM [falling, full curve, poor fit] |  |
| COc1ccc(C(=O)CSc2cc(C)nc3nc(C)nn23)cc1OC |  | 0.13 µM [rising, full curve, poor fit] | 0.092 µM [rising, full curve, poor fit] |
| N#Cc1ccsc1NC(=O)c1cccc(-n2cnnn2)c1 | 13.9% |  |  |
| COc1ccccc1Cn1c(=O)[nH]c2cccnc21 | 2.13% | 0.116 µM [rising, full curve, poor fit] |  |
| CN(NC(=O)c1ccccc1F)c1nc(C(F)(F)F)nc2ccccc12 | 6.1% | 4.11 µM [rising, single point] |  |
| CCOc1ccccc1C(=O)Nc1c[nH]c(=O)[nH]c1=O | -7.14% |  |  |
| CN(C(=O)CSc1nnc(C2CC2)n1C1CC1)C1(C#N)CCCCC1 | 19.9% | 2.91 µM [falling, single point] | 2.91 µM [falling, single point] |
| COc1cccc(C(=O)Nc2ccc3[nH]c(=O)[nH]c3c2)c1OC | 20.6% |  |  |
| O=C(CC12CC3CC(CC(C3)C1)C2)Nc1nncs1 | -0.99% | 6.51 µM [falling, single point] |  |
| O=C(NCc1ccccc1)N[C@@H](Cc1ccccc1)C(=O)O | -65.9% |  | 20.6 µM [falling, single point] |
| COc1ccc(S(=O)(=O)N2CCC(C(=O)NC3CCCCC3)CC2)cc1C | 25% |  |  |
| CC12CC3(C)CC(C)(C1)CC(C(N)=O)(C2)C3 | 9.23% | 0.0731 µM [falling, full curve, poor fit] |  |
| O=C(O)c1ccc(N2C(=O)CC(SC(=NCc3ccc4c(c3)OCO4)Nc3ccc(F)cc3)C2=O)cc1 (stereo not drawn) | -32.9% |  | 0.103 µM [falling, full curve, poor fit] |
| Cc1cc(C(=O)COC(=O)c2ccc(Br)o2)c(C)n1C | 32% | 29.1 µM [rising, single point] | 32.6 µM [rising, single point] |
| CC(C)Nc1nc(Cl)nc(NN(C)c2nc(N(C)C)nc(N(C)C)n2)n1 | 66.8% | 23.1 µM [rising, single point] | 29.1 µM [rising, single point] |
| COc1ccc(-c2nnc(NC(=O)c3ccc(S(=O)(=O)N(C)CC4CCCO4)cc3)o2)c(OC)c1 (stereo not drawn) | -2.02% | 2.06 µM [falling, partial curve] |  |
| COc1ccc(Nc2cc(Cl)nc(N)n2)cc1OC | 27.2% | 0.00461 µM [rising, full curve] |  |

| SMILES | cell number change | AC50 [1] | AC50 [2] |
| --- | --- | --- | --- |
| C=C(C)COc1ccc(-c2[nH]ncc2Oc2ccccc2OCC)c(O)c1 | -72.2% | 3.66 µM [falling, partial curve] | 13 µM [falling, partial curve, poor fit] |
| CC(C)[C@H](NC(N)=O)C(=O)Nc1cccc(S(=O)(=O)NC2=NCCCCC2)c1 | 164% | 20.6 µM [rising, partial curve] | 29.1 µM [rising, partial curve] |
| O=S(=O)(c1cc(Cl)ccc1Cl)N1CCN2CCCC2C1 (stereo not drawn) | 1.81% | 0.13 µM [rising, full curve, poor fit] |  |
| O=C(Nc1cccc(Cl)c1)Nc1cccc(Cl)c1 | -32.6% | 10.3 µM [falling, partial curve] | 7.31 µM [falling, partial curve] |
| CCc1ccc(OCC(=O)NNC(=O)c2cc(S(=O)(=O)N(C)C)ccc2N2CCCC2)cc1 | 16.6% | 29.1 µM [rising, single point] |  |
| CC(NC(=O)CSC1=NCCS1)c1ccccc1 (stereo not drawn) | 0.16% | 29.1 µM [falling, single point] |  |
| CSCC[C@H](NC(=O)NCCC1=CCCCC1)C(=O)O | -76.7% | 29.1 µM [falling, single point] | 32.6 µM [falling, partial curve] |
| CC1CC(C)CN(CCCNC(=O)CCC(=O)N2CC(C)Oc3ccccc32)C1 (stereo not drawn) | 11.5% |  |  |
| COC(=O)c1cccc(NC(=O)CSc2nnc(C)n2Cc2ccccc2)c1 | 11.9% | 2.06 µM [rising, full curve] |  |
| Cc1cc(C)cc(NC(=O)c2ccc3nc[nH]c3c2)c1 | 12.7% | 29.1 µM [rising, partial curve] |  |
| C/C(=N\N=C1\NC(=O)C(CC(=O)Nc2ccc(C)c(Cl)c2)S1)C(C)(C)C (stereo not drawn) | -47.7% |  | 20.6 µM [falling, single point] |
| O=C(Nc1ccc(S(=O)(=O)N2CCCCCC2)cc1)c1ccc(Br)o1 | 14.4% | 29.1 µM [falling, single point] |  |
| COc1ccc(N2C(=O)c3ccccc3NC2c2ccc(NC(C)=O)cc2)c(OC)c1 (stereo not drawn) | 7.62% |  |  |
| Cc1cc(-c2ccccc2)nnc1NCCN1CCOCC1 | -9.4% | 5.8 µM [rising, partial curve] |  |
| COn1c(-c2ccccc2)nc2ncccc21 | -1.77% |  |  |
| COc1ccc(S(=O)(=O)N2CCC(Cc3ccccc3)CC2)cc1C(N)=O | 12.9% | 10.3 µM [falling, single point] |  |
| CC(C)N(C(=O)COC(=O)c1ccc(Cl)s1)c1ccccc1 | -15.7% |  |  |
| CCn1c(Cc2ccccc2)nnc1SCC(=O)c1c(N)n(C2CC2)c(=O)[nH]c1=O | 12.3% | 5.8 µM [falling, partial curve, poor fit] |  |
| O=C(COc1ccc2ccc(=O)oc2c1)NC1CCN(Cc2ccccc2)CC1 | -0.283% | 29.1 µM [rising, single point] |  |
| CC1=CC2=C(OC1N(C)C)c1cccc3cccc(c13)C2=O (stereo not drawn) | 1.56% | 6.51 µM [rising, single point] |  |

Two entries from above, set out differently:
SMILES	cell number change	AC50 [1]	AC50 [2]
CCc1ccc(OCC(=O)NNC(=O)c2cc(S(=O)(=O)N(C)C)ccc2N2CCCC2)cc1	16.6%	29.1 µM [rising, single point]	
CC(NC(=O)CSC1=NCCS1)c1ccccc1 (stereo not drawn)	0.16%	29.1 µM [falling, single point]	
